Laboratory results reported in publication PMC8617094.

B1: GTF-2H5 (C. elegans TTDA ortholog) (protein, UniProt Q9N390 1-71)
chain: MVNVKKGVLVTSDPAFRQLLIHLDDSRQLGSKFIVRELDDTHLFIEKEIVPMLENKVEQIMENMNPEAVDK
B2: GTF-2H2C (protein, UniProt P34567 1-376)
chain: MDDDEQKGYTWEAGYAEGLNINDVLVEDEGGSIEKSIAKYVADSKRKARLTKRPERIRLGIMRHVMIVIDCSRFMTSKAMPPSRFVVVMKALQTFLDRFFEQNPIAQIGLITCKDRKADRLTMMTGNIRVLKESLNTLTEAFCGGDFSLQNALQLACANLKGMPGHVSREVVLVISALSTIDPGNIYSTIETMKRMNIRCSAIGLSAEMFVCKEMAKATKGEYSVALDPDHLQLLFSKHTLPPSSAKSSECNAIHVGFPHHELITTRSFCVCHPDTKPISSRGFICTQCGARHCSIPAECPVCKLTLVAAPQLARAFRHLQPLSAFEQIEVTRGFCYACETRLSGEGFRCGSCQLVFCLDCDTLLHESLHVCPGCN
B3: CDK-7 (protein, UniProt G5EFV5 1-330)
chain: MSRRYDTIKHLGEGQFANVYLAQDLESGECVAIKKIKLGSREEAKDGINRTAIREIKLLKEIHHDNIIGLRDVIGHRTSIQLVFDFMDTDLEHVIKDKEIILMPAHIKNITMQMLLGLEFLHVHWILHRDLKPNNLLMNKMGRVKLTDFGLARFFGSPNRNYTHQVVTRWYRAPELLFGARSYGVGIDIWSVGCIIAELLLRNPIFPGESDIDQLVKIFNILGCPTPETWPNMTEMNSYVIIKPQTEYMALNYYFSAAPQDLLDLMAGMWTFDPIKRLTCTQSLQMEYFRTQPFCCLDEELPLPKKQQPQKRSRRLDDDGTRPVRRLNFD

biological target: AG::GTF-2H1 (AID::GFP-tagged GTF-2H1, C. elegans ortholog of TFIIH subunit GTF2H1/p62) (C. elegans); experiment: affinity purification with mass spectrometry; GFP-TRAP-A agarose IP of AG::GTF-2H1 from sonicated, Benzonase-treated lysates of C. elegans (wild type and gtf-2H5(tm6360) animals); IP buffer 30 mM HEPES pH 7.5, 130 mM NaCl, 1 mM MgCl2, 0.5% Triton X-100; 2 h at 4 °C; LC-MS/MS; three replicates

binding | Binder
binds | B1
binds | B2
binds | B3

No constants are given. Whether binding was seen depends on the method and setting. In cells and extracts the contact can be indirect. Here binding means that the protein was enriched with, or labelled near, the bait; the list need not be complete.
